In paper doi:10.1101/2021.11.19.469240:
Read-outs that look alike come from different tables or passages of the source. No constants are given. Whether binding was seen depends on the method and setting. Binding seen in cells or lysates may run through a third protein. Some binding calls cover weakened binding; strength is not graded here.

Protein sequences, listed by entry. Tags and fused reporters are not part of them. Residues count along the entry.
UniProt Q9EP80: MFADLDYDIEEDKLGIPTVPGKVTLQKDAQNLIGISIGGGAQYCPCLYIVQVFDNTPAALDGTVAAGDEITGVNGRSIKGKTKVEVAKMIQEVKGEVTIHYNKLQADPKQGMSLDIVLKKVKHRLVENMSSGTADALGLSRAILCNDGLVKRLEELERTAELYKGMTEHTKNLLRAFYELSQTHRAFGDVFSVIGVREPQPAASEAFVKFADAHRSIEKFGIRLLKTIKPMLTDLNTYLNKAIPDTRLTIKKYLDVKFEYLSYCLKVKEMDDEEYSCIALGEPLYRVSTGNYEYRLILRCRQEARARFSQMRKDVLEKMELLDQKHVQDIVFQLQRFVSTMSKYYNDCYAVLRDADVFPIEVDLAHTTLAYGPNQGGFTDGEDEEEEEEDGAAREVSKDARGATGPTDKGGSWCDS
UniProt P35400, residues 35-915: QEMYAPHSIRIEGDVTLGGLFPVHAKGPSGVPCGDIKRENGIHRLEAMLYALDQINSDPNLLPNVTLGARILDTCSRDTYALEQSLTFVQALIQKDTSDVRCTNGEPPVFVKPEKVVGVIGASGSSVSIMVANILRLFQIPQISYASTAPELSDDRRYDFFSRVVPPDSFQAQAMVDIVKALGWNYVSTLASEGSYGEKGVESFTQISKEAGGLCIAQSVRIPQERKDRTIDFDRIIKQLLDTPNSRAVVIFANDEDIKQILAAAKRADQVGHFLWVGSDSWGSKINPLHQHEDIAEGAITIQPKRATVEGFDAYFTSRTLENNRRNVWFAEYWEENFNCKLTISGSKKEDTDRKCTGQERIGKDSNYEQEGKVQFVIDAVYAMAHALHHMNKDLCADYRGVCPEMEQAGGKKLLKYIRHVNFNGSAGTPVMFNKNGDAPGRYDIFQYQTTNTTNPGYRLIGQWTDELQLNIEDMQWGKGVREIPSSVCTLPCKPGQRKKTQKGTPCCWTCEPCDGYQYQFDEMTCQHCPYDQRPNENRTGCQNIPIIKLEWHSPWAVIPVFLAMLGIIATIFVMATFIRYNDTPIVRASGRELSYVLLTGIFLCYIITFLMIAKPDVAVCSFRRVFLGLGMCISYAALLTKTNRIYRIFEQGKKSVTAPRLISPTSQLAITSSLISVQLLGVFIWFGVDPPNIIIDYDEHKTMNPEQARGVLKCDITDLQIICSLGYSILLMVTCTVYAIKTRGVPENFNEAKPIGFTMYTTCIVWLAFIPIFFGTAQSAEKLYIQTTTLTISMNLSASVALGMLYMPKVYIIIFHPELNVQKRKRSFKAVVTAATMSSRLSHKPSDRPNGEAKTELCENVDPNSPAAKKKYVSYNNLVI
UniProt P31422, residues 23-879: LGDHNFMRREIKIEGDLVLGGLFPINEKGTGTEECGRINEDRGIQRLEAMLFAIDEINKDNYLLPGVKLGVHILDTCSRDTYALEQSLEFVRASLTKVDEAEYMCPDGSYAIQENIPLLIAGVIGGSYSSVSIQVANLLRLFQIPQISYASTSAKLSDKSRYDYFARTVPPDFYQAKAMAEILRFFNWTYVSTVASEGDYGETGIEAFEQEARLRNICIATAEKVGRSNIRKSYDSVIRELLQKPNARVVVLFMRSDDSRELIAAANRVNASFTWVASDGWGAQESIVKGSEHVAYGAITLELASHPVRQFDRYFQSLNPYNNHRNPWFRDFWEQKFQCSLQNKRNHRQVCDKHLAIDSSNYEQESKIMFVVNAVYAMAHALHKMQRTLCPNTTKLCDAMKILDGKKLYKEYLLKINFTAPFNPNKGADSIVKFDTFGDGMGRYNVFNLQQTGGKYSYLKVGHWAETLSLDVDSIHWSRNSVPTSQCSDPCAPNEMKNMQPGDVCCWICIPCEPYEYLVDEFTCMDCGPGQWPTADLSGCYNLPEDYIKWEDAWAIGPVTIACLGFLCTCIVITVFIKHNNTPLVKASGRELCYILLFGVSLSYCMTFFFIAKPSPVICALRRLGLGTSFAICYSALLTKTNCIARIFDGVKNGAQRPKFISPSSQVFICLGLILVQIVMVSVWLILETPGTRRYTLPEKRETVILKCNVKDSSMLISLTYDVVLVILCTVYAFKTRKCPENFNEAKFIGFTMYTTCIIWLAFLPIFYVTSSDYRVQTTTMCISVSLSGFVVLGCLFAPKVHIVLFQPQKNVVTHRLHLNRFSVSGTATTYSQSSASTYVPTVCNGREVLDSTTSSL
UniProt P31421, residues 19-872: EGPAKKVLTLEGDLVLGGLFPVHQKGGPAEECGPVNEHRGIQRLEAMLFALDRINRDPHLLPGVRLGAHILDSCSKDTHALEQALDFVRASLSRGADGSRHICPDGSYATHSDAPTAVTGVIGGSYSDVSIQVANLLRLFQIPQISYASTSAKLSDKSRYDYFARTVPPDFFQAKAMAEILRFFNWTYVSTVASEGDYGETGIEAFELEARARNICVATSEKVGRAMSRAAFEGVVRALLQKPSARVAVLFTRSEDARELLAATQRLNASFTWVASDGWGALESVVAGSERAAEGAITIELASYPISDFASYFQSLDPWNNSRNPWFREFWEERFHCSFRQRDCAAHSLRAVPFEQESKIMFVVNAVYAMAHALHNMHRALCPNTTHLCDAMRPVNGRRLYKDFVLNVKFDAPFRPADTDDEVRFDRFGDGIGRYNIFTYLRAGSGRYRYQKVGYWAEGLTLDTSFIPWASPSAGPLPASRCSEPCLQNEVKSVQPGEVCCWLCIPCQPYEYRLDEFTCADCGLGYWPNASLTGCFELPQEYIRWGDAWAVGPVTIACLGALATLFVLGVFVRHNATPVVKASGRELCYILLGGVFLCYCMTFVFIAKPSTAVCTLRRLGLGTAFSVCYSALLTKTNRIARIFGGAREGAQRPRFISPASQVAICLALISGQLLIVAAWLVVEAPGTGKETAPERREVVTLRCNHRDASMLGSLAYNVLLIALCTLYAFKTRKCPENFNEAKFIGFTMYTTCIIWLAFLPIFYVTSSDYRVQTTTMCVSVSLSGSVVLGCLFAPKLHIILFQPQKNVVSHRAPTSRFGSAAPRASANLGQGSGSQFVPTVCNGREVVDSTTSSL
UniProt Q62083: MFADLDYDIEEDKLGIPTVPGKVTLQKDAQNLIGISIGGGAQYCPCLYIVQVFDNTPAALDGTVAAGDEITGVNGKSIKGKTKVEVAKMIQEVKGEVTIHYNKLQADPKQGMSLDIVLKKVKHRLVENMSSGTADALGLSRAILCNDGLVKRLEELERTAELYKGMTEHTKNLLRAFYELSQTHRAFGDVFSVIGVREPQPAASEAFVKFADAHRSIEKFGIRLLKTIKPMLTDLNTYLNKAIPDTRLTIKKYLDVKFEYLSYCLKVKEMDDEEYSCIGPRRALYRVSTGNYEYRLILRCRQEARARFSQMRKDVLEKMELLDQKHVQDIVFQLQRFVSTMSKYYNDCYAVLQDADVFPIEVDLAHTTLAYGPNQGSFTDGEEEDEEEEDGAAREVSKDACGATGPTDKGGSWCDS

Experiments:
[1] = biological target: GFP-PICK1 (Protein Interacting with C Kinase 1, GFP-tagged) (UniProt Q9EP80); assay: co-IP
[2] = biological target: GFP-PICK1 (Protein Interacting with C Kinase 1, GFP-tagged) (UniProt Q9EP80); assay: co-IP; remark: listed apart in the source
HA-tagged mGlu7 receptor = HA-tagged mGlu7 receptor (UniProt P35400); assay: co-IP
[3] = biological target: HA-mGlu3 (mGlu3 receptor bearing an HA tag in the extracellular N-terminal domain) (UniProt P31422); assay: co-IP
HA-tagged mGlu2 receptor = HA-tagged mGlu2 receptor (UniProt P31421); assay: co-IP
[4] = biological target: T1, mGlu3-SSL peptide (synthetic peptide of the C-terminal domain of the mGlu3 receptor, wild type) (mouse); assay: pull-down
T1 sequence (peptide): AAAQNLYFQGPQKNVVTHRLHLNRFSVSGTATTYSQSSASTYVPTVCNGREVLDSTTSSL

[5] = biological target: T1, mGlu3-SSL peptide (synthetic peptide of the C-terminal domain of the mGlu3 receptor, wild type) (mouse); assay: pull-down; remark: listed apart in the source

## HA-mGlu3 (mGlu3 receptor bearing an HA tag in the extracellular N-terminal domain) (from UniProt P31422 23-879)
[1]
  binding: binds
[2]
  binding: binds

## GFP-PICK1 (Protein Interacting with C Kinase 1, GFP-tagged) (from UniProt Q9EP80 1-416)
HA-tagged mGlu7 receptor
  binding: binds
[3]
  binding: binds
HA-tagged mGlu2 receptor
  binding: no binding
[4]
  binding: binds

## native PICK1 expressed in mouse brain (from UniProt Q62083 1-416)
[5]
  binding: binds
[4]
  binding: binds
